From paper PMC6160385

Chains of the proteins cited; added tags and fusions are not shown. Lines headed by an entry give the natural chain unless they say otherwise; changes in a name come on top. A line that says so, or that is headed by a name, gives the form on record, which may keep a tag or linker.
Flag-β-TRCP (Q9Y297, form named): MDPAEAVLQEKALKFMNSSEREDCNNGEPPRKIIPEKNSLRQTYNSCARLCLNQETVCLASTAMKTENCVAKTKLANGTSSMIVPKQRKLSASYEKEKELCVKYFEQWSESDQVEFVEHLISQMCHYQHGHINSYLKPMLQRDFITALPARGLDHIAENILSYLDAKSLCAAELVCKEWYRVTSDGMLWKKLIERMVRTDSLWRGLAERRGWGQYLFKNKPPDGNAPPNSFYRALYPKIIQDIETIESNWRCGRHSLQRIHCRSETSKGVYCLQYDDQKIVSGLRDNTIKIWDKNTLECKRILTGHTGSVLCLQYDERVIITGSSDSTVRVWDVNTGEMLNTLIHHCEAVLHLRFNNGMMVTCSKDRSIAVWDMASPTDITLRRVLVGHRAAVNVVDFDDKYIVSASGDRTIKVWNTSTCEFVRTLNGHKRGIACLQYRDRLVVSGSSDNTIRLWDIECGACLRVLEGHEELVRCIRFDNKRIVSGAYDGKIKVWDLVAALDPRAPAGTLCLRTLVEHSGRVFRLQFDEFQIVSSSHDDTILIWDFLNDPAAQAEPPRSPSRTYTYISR
UniProt Q9ULT6: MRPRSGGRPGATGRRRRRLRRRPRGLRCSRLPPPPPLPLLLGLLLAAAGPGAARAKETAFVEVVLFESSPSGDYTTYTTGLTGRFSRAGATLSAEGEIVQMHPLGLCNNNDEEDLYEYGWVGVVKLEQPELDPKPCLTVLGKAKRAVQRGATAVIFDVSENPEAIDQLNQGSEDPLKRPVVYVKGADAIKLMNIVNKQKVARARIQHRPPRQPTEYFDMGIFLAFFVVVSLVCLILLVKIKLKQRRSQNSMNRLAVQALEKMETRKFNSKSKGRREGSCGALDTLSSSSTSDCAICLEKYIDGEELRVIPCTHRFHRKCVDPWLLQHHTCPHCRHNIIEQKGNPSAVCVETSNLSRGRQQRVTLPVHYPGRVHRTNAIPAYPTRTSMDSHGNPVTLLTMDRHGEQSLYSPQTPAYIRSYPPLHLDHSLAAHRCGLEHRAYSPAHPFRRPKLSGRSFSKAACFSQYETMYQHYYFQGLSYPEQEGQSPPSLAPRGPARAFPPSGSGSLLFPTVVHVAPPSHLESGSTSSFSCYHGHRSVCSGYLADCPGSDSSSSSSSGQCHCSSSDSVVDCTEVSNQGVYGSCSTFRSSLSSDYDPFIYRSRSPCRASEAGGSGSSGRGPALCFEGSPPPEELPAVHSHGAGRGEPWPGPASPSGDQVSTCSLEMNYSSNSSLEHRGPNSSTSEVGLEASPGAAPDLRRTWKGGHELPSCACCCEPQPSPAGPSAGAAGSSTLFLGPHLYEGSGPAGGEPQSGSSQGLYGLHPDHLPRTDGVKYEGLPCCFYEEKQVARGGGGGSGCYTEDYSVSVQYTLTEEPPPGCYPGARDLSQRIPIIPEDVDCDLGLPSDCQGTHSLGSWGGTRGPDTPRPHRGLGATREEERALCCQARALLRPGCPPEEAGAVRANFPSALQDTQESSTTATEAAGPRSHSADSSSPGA

Target: Flag-β-TRCP (UniProt Q9Y297)
Assay: co-IP; HeLa cells transfected with ZNRF3 wild type or degron mutants and β-TRCP; immunoblot of IP and WCL

ZNRF3 with the SSG degron motif mutated (from UniProt Q9ULT6)
binding: no binding

ZNRF3 with the ESG degron motif mutated (from UniProt Q9ULT6)
binding: binds

Results are given in words; binding and its absence hold for the method and conditions named. Binding seen in cells or lysates may run through a third protein. A result given as binding can be weak or reduced; the word gives no strength.
